Test results published in PMC7028823, “EF1025, a Hypothetical Protein From Enterococcus faecalis, Interacts With DivIVA and Affects Cell Length and Cell Shape” (Frontiers in Microbiology, 2020).
These are yes or no findings as the source states them, for the method shown. For some assays here: Binding seen in cells or lysates may run through a third protein. Some results given as binding are weak or reduced against the parent protein; the word gives no strength. Sequences can lack the tags named with a protein.

How the values were obtained:
[1] = target: T1, DivIVABs (Bacillus subtilis) (UniProt P71021); assay: pull-down; GST pull-down; paper in preparation, no details
T1 sequence: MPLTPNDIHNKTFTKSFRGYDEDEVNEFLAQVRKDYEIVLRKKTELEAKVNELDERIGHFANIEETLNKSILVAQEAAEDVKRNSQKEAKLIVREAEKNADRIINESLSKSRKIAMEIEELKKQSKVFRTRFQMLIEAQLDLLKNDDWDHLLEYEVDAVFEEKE

[2] = target: T1, DivIVABs (Bacillus subtilis); assay: two-hybrid; bacterial two-hybrid (B2H); paper in preparation, no details

binding [1]: binds
binding [2]: binds
B1: CcpN (control catabolite protein of gluconeogenic genes) (protein, UniProt O34994 1-212)
chain: MSTIELNKRQEHILQIVKENGPITGEHIAEKLNLTRATLRPDLAILTMSGFLEARPRVGYFYTGKTGTQLLADKLKKLQVKDFQSIPVVIHENVSVYDAICTMFLEDVGTLFVVDRDAVLVGVLSRKDLLRASIGQQELTSVPVHIIMTRMPNITVCRREDYVMDIAKHLIEKQIDALPVIKDTDKGFEVIGRVTKTNMTKILVSLSENEIL
